## Library screening results

The chains behind the UniProt entries cited, without tags or fusion partners.
UniProt E9BF75, entry or part of it: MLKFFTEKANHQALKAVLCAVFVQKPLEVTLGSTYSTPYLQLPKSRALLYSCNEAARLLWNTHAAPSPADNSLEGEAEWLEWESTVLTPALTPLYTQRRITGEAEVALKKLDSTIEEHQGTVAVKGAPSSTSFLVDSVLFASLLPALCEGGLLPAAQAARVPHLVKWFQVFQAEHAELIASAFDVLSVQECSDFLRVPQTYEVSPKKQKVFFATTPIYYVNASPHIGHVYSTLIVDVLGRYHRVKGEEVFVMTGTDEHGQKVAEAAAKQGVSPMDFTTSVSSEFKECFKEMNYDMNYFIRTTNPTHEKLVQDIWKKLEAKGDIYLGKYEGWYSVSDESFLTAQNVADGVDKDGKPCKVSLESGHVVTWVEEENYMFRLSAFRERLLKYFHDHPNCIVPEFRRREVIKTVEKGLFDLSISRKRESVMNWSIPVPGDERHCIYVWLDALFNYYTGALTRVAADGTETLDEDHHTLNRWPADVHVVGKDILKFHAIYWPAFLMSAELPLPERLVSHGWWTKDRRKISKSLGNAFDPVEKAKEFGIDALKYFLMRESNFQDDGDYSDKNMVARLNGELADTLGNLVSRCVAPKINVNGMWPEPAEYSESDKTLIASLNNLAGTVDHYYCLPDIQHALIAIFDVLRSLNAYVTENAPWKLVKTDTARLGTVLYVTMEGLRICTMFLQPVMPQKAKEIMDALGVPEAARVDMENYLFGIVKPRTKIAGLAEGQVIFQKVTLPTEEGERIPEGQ

Data taken from ChEMBL document CHEMBL3988442, “University of Dundee, Small-Polar-MMV Screening Library” (2021).

A: 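Methionyl-tRNA synthetase (putative), Leishmania donovani (UniProt E9BF75). Primary screen of methionyl-tRNA synthetase; the read-out is not stated. The test concentration is not given. Values are per cent inhibition. About 68,000 compounds were tested under these conditions; 0.035% (about 24) showed 50% or more at least once.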
B: 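Assay on Mycobacterium tuberculosis, filed only as a heat shock assay from Cornell; the read-out is not stated. The concentration is filed as 10 mM, unlikely as a test dose, so the dose is not known. Higher reads as stronger inhibition (inferred: compounds with an IC50 in retests scored well above the rest). Of about 69,000 compounds tested this way, about 930 (1.4%) reached 50% or more in at least one test.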

All values are in %. The controls that fix the scale are not given in the record; negative values are as filed. This is an unselected part of the compounds tested. A dash means the value is not listed here; it may have been measured.

SMILES	A	B
COc1ccccc1NC(=O)c1[nH]nc(C(C)C)c1Br	26.57%	-18.46%
CCCOc1ccccc1CN[C@@H]1CCC[C@H]1Cc1cc(C)no1.O=C(O)CC(O)(CC(=O)O)C(=O)O	-	-26.27%
O=C1CCCN1CCCC(=O)N1CCCC(c2ccn[nH]2)C1 (configuration not stated)	6.452%	9.822%
O=C1NC2(Cc3ccccc31)CN(CC1CCCC1)C2	5.143%	-16.37%
[H][C@]12CC[C@]([H])(CN(Cc3cc(=O)[nH]c(=O)[nH]3)C1)N(CC=C(C)C)C2	-	13.63%
CC1CCCCN1c1nc2c(c(=O)[nH]1)CCN(Cc1ccccn1)C2 (configuration not stated)	-2.588%	-29.02%
COc1c(C)cnc(CN2CCCC2c2noc(C)n2)c1C (configuration not stated)	3.631%	-26.27%
O=C1[C@@H]2CCN(Cc3ccoc3)C[C@@H]2OCCN1Cc1cccc(F)c1	14.92%	-
O=C(O)C(F)(F)F.O=C(c1cscn1)N1CCc2ncc(CN3CCCC3)n2CC1	-	12.06%
CCn1cc(C(=O)N(C)[C@@H]2CC[C@@H](N3CCCC3)[C@@H]2O)c(C)n1	10.25%	0.3914%
CN(C)S(=O)(=O)N1CC(c2nc(-c3ccsc3)no2)C1	12.42%	-2.472%
O=C(O)C(F)(F)F.O=C(O)C(F)(F)F.[H][C@@]12CN(Cc3cccs3)CCC[C@]1(C(=O)OCC)CN(CC(C)C)C2	-	26.18%
CCN(C)C(=O)CN1CCC(c2cc(N3CCOCC3)nc(C)n2)CC1	8.791%	17.21%
CCN(CC)S(=O)(=O)NC(=O)c1cc(C)n(-c2ccccc2)n1	0.2786%	0.3684%
O=C(O)C(F)(F)F.[H][C@@]12CCCO[C@]1([H])[C@H](NC(=O)CC1CC1)CN(Cc1cnn(C)c1)C2	-	-30.06%
Cc1cc(N2CCC(N(C)Cc3cccnc3)C2=O)n(C)n1 (configuration not stated)	0.3472%	-21.96%
CN(Cc1cn2c(n1)CN(CC1CCOC1)CC2)Cc1ccco1.O=C(O)C(F)(F)F.O=C(O)C(F)(F)F (configuration not stated)	-	-9.572%
O=C(C1CC=CC1)N1C[C@@H]2CN(Cc3ccsc3)CCO[C@@H]2C1	15.93%	-
CN1C(=O)c2cccc(NC(=O)c3ccc4c(c3)OCCO4)c2C1=O	4.077%	-13.99%
COCCCNC(=O)C(C)(C)N(C)C1CCCC1	11.54%	-16.42%
C[C@H]1CN(Cc2cccc(F)c2)C[C@@]12CCN(CC(=O)N(C)C)C2=O	17.93%	-
O=C(O)C(F)(F)F.[H][C@@]12CCCO[C@]1([H])[C@@H](NC(=O)N(C)C)CN2C1CCOCC1	-	-40.03%
CCc1nc(C(=O)N2CCOCC2)nn1-c1ccccc1Cl	22.29%	-0.5944%
CN1CCN(C[C@@H]2OC[C@H]3CN(Cc4cccc(F)c4)CC[C@H]32)CC1	9.623%	-
CN1CCN2CCN(C(=O)c3cnn4cc(CCO)cnc34)CC2C1 (configuration not stated)	3.621%	-4.291%
CC(NC(=O)CCCc1ccc(Cl)cc1)c1n[nH]c(=O)[nH]1 (configuration not stated)	4.469%	-7.593%
O=C1CCCN1Cc1nnc2n1CCN(Cc1ccoc1)CC2	-0.3367%	-
O=C(c1cccnc1)N1C[C@@H]2CC[C@H](C1)N(Cc1cccc(Cl)c1F)C2	10.34%	-
c1cc(C[C@H]2[C@H](N3CCOCC3)CCN2Cc2ccoc2)ccn1	6.189%	-43.22%
CC(C)N1CCCC(CNC(=O)c2ccnc(-n3ccnc3)c2)C1 (configuration not stated)	-12.66%	-16.18%
Cc1nn(C)c(Cl)c1C1CCCN1c1ncnc2c1CCC2 (configuration not stated)	0.8219%	-26.78%
O=C(NCC1CC1)C1CN(C(=O)c2cccc(Cl)c2)CC12CCOCC2 (configuration not stated)	0.9804%	-6.026%
CC(=O)N1CCOCC2(CN(Cc3ccccn3)CCO2)C1.O=C(O)C(F)(F)F.O=C(O)C(F)(F)F (configuration not stated)	-	8.547%
CC(C)c1nn(C)c(Cl)c1CNCc1ccc2c(c1)OCCO2	15.75%	-
O=C(c1cncc(Br)c1)N1CCCc2c(F)cc(F)cc21	4.861%	-14.51%
CCOCC1CN(C(=O)N2CCCC2)Cc2cnn(CC)c21 (configuration not stated)	-4.667%	-20.62%
CC(C)(C)OC(=O)N1CSC[C@@H]1C(=O)NCc1ccc(C#N)cc1	14.49%	18.41%
Cc1ccc(NC2CCCN(C3Cc4ccccc4C3)C2)nn1 (configuration not stated)	12.06%	6.305%
COc1cc(NCc2ccc(Cl)cc2)c(-c2nn[nH]n2)cc1OC	15.01%	8.686%
c1cncc(CN2Cc3nccn3CC(Cn3cccn3)C2)c1 (configuration not stated)	18.18%	-
COc1c(CNCc2ccccc2Cn2ccnc2)c(C)nn1C	22.22%	-5.537%
CC(C)NC(=O)C1c2c(ncn2C(C)C)CCN1Cc1ccccc1.O=C(O)C(F)(F)F (configuration not stated)	-	-1.484%
O=C(Nc1cnccn1)[C@H]1CC[C@@H]2[C@@H](CCN2Cc2ccoc2)O1	2.538%	-
CN(C)C(=O)CO[C@@H]1CC[C@H]2[C@H]1OCCN2c1ncc(F)cn1	8.831%	-
COc1c(Cl)cc(C(=O)NCc2n[nH]c(C)n2)cc1Cl	9.524%	-20.76%
Cc1nc(CN2C(=O)C[C@H]3[C@H]2CCN3C2CCOCC2)cs1	18.5%	-
CCOc1ccc(N2CCCN=C2NC(=O)c2ccc(Cl)cc2)cc1	-16.33%	43.04%
CCN(CC)CCNc1nc(C(C)C)nc2c(C)nn(CC)c12	29.4%	0.6091%
NC(=O)c1ccc(-c2nc3c(c(=O)[nH]2)CCNC3)cc1	12.27%	-9.923%
CC(C(=O)NCc1ccc(N2CCN(C)CC2)nc1)n1cccn1 (configuration not stated)	15.3%	-16.12%
CC(C)Nc1nc2c(cc1C(=O)NCC1CC1)CCNCC2	16.32%	-
COc1ccc(C2C3=C(COC3=O)Nc3[nH]nc(C)c32)cc1OC (configuration not stated)	12.03%	-11.72%
CCn1cnnc1CNC(=O)N(C)Cc1c(F)cccc1Cl	8.424%	-1.19%
O=c1[nH]c2ccccc2cc1CN(Cc1ccccn1)CC1CCCO1 (configuration not stated)	3.474%	51.43%
CN1CCCC(CNS(=O)(=O)N2CCc3ccccc3C2)C1 (configuration not stated)	16.49%	-3.638%
O=C(O)C(F)(F)F.O=C(O)C(F)(F)F.[H][C@@]12CCC(=O)N(c3cnn(C)c3)[C@]1([H])CCN2CCc1ccccc1	-	-25.96%
O=C(Nc1cccc(F)c1)N1CCC(CO)(Nc2ccccc2)CC1	17.89%	7.478%
CCOC(=O)c1cnn(C2CCN(C(=O)CC3CCCC3)CC2)c1N	14.1%	-4.796%
CS(=O)(=O)N1CCOCC2(CN(Cc3ccccn3)CCO2)C1.O=C(O)C(F)(F)F.O=C(O)C(F)(F)F (configuration not stated)	-	-26.94%
CCc1nnsc1C(=O)N1CCCC1c1c(C)nn(C)c1OC (configuration not stated)	0.2817%	-3.929%
CC(C)CN1CCN(C)C2(CCN(c3nccs3)CC2)C1=O	11.23%	-
Cc1cc(C2CCCN(C(=O)COc3cccc(F)c3)C2)n[nH]1 (configuration not stated)	8.179%	-4.439%
COC1CCCOC12CCN(C(=O)c1ccc3[nH]nnc3c1)CC2 (configuration not stated)	2.857%	4.239%
[H][C@]12CCN(S(=O)(=O)c3cccc(C)c3)[C@@]1([H])CC[C@@H](COC)O2	-	-7.26%
COCC(=O)N1CCCCC1c1nc(CN(C)C(C)=O)cc(N(C)C)n1 (configuration not stated)	4.088%	-29.61%
COCCN1CCc2ncnc(NC(C)C)c2CC1	7.273%	-
CN(CCC(F)(F)F)C(=O)c1nc(S(C)(=O)=O)n2ccccc12	7.232%	-10.18%
CC(C)(C)CCN1CCN(Cn2nccc2-c2cccnc2)CC1	3.562%	1.516%
CS(=O)(=O)CCC(=O)Nc1cc(Cl)c(Cl)cn1	4.348%	-15.99%
COc1cc2c(cc1CN1CCn3c(CO)nnc3C1)CCC2	14.79%	-
CCSc1nnc(N(CCC#N)CCC#N)s1	3.774%	-7.12%
CC(=O)N[C@@H]1CN(Cc2nccn2C)C[C@H]1c1ccc(C)cc1	1.042%	11.27%
CC(COCC(F)(F)F)NC(=O)c1ccc(-c2ccco2)[nH]c1=O (configuration not stated)	9.091%	6.251%
COc1cc(NC(=O)C2CC(=O)N(c3cccc(Br)c3)C2)ncn1 (configuration not stated)	15.11%	15.22%
CN(CC1(O)CCCN(c2ccccn2)C1)C(=O)Cc1ccsc1 (configuration not stated)	11.3%	-7.964%
CCc1cnc(CN(C)C2CCN(CCCS(=O)(=O)NC)C2)o1 (configuration not stated)	-11.66%	5.154%
CS(=O)(=O)N1CCCC(c2cncc(Nc3ccccn3)n2)C1 (configuration not stated)	14.69%	-6.573%
c1ccc(CN2CCCn3nnc(Cn4cccc4)c3C2)nc1	14.98%	-
CCS(=O)(=O)N1CCC(C(=O)NC(Cc2ccsc2)c2nccs2)CC1 (configuration not stated)	9.04%	15.14%

Once more, the final 9:

SMILES	A	B
CCSc1nnc(N(CCC#N)CCC#N)s1	3.774%	-7.12%
CC(=O)N[C@@H]1CN(Cc2nccn2C)C[C@H]1c1ccc(C)cc1	1.042%	11.27%
CC(COCC(F)(F)F)NC(=O)c1ccc(-c2ccco2)[nH]c1=O (configuration not stated)	9.091%	6.251%
COc1cc(NC(=O)C2CC(=O)N(c3cccc(Br)c3)C2)ncn1 (configuration not stated)	15.11%	15.22%
CN(CC1(O)CCCN(c2ccccn2)C1)C(=O)Cc1ccsc1 (configuration not stated)	11.3%	-7.964%
CCc1cnc(CN(C)C2CCN(CCCS(=O)(=O)NC)C2)o1 (configuration not stated)	-11.66%	5.154%
CS(=O)(=O)N1CCCC(c2cncc(Nc3ccccn3)n2)C1 (configuration not stated)	14.69%	-6.573%
c1ccc(CN2CCCn3nnc(Cn4cccc4)c3C2)nc1	14.98%	-
CCS(=O)(=O)N1CCC(C(=O)NC(Cc2ccsc2)c2nccs2)CC1 (configuration not stated)	9.04%	15.14%